Data published in PubChem BioAssay AID256 (DTP/NCI, 2004).
The list does not hold the whole screen: it gathers tests that were run many times, whatever their T/C, doses with no T/C, and many T/C values between a quarter and a half above the control. Other doses and runs of a compound stand elsewhere. T/C gives the treated animals as a percentage of the vehicle group. Some doses have a count of surviving animals in place of a T/C: the source holds a T/C of zero for them, seemingly a mark for toxic or unscored doses. Some doses without a T/C left all or most animals alive at the check, yet need not have been tolerated: survival well below the control is almost never listed, so the zero probably covers shortened survival too. Counts of survivors are from the toxicity check (mostly the fifth day) where no day follows; animals may have died later. Schedules are NCI's codes, read here as Q, the interval in days (D) or hours (H), X, the number of doses. Counts like (3×) count equal records among those shown. Some entries were tested several times; the results are listed from low to high. For survival time, the PubChem record calls one and a half times the control and up active, and a quarter to a half above the control has no call in these data; cut-offs in other NCI protocols can differ. Some T/C values are followed by the survivors on the day toxicity was checked, most often the fifth; without a count, all were alive then.

Test system: CD2F1 mice, L1210 leukemia ip, survival T/C
Test: NCI In Vivo Anticancer Drug Screen. Data for tumor model L1210 Leukemia (intraperitoneal) in CD2F1 (CDF1) mice
Settings: higher T/C = longer survival
Procedure, shortened: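 Read-out first: treated-group measurement over vehicle-control measurement, expressed as a ratio. Animals bore a transplanted tumor line and were dosed with compound or vehicle.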

[1] = T/C endpoint: mean survival time, dose: 400.0 mg/kg/injection, schedule: Q04DX003 (ip), vehicle: saline with Tween-80
[2] = T/C endpoint: mean survival time, dose: 150.0 mg/kg/injection, schedule: Q01DX001 (ip), vehicle: saline
[3] = T/C endpoint: mean survival time, dose: 300.0 mg/kg/injection, schedule: Q01DX001 (ip), vehicle: saline
[4] = T/C endpoint: mean survival time, dose: 400.0 mg/kg/injection, schedule: Q01DX009 (ip), vehicle: saline with Tween-80
[5] = T/C endpoint: mean survival time, dose: 12.5 mg/kg/injection, schedule: Q01DX009 (ip), vehicle: saline
[6] = T/C endpoint: mean survival time, dose: 400.0 mg/kg/injection, schedule: Q04DX002 (ip), vehicle: saline with Tween-80
[7] = T/C endpoint: mean survival time, dose: 25.0 mg/kg/injection, schedule: Q01DX009 (ip), vehicle: water
[8] = T/C endpoint: mean survival time, dose: 50.0 mg/kg/injection, schedule: Q01DX009 (ip), vehicle: water
[9] = T/C endpoint: mean survival time, dose: 100.0 mg/kg/injection, schedule: Q01DX009 (ip), vehicle: water
[10] = T/C endpoint: mean survival time, dose: 100.0 mg/kg/injection, schedule: Q01DX009 (ip), vehicle: Klucel (hydroxypropylcellulose) (HPC)
[11] = T/C endpoint: mean survival time, dose: 200.0 mg/kg/injection, schedule: Q01DX009 (ip), vehicle: Klucel (hydroxypropylcellulose) (HPC)
[12] = T/C endpoint: mean survival time, dose: 400.0 mg/kg/injection, schedule: Q01DX009 (ip), vehicle: Klucel (hydroxypropylcellulose) (HPC)
[13] = T/C endpoint: mean survival time, dose: 400.0 mg/kg/injection, schedule: Q04DX003 (ip), vehicle: saline

## O=c1c2cc[nH]c2ncn1C1OC(CO)C(O)C1O (stereo not given)
T/C endpoint: mean survival time, dose: 50.0 mg/kg/injection, schedule: Q01DX005 (ip), vehicle: saline
  survivor count: 0 of 4
T/C endpoint: mean survival time, dose: 100.0 mg/kg/injection, schedule: Q01DX005 (ip), vehicle: saline
  survivor count: 0 of 4
T/C endpoint: mean survival time, dose: 200.0 mg/kg/injection, schedule: Q01DX005 (ip), vehicle: saline
  survivor count: 0 of 4
T/C endpoint: mean survival time, dose: 400.0 mg/kg/injection, schedule: Q01DX005 (ip), vehicle: saline
  survivor count: 0 of 4

## CC12CCC3c4ccc(O)cc4CCC3C1CCC2S (stereo not given)
[1]
  survivor count: 5 of 6

## COc1ccc([N+](=O)[O-])cc1CN(C)C(C)C
T/C endpoint: mean survival time, dose: 100.0 mg/kg/injection, schedule: Q04DX003 (ip), vehicle: Klucel (hydroxypropylcellulose) (HPC)
  survivor count: 0 of 6
T/C endpoint: mean survival time, dose: 200.0 mg/kg/injection, schedule: Q04DX003 (ip), vehicle: Klucel (hydroxypropylcellulose) (HPC)
  survivor count: 0 of 6
T/C endpoint: mean survival time, dose: 400.0 mg/kg/injection, schedule: Q04DX003 (ip), vehicle: Klucel (hydroxypropylcellulose) (HPC)
  survivor count: 0 of 6

## C[S+]1C=C(c2ccccc2)C=C(c2ccccc2)C1 (stereo not given)
T/C endpoint: mean survival time, dose: 15.0 mg/kg/injection, schedule: Q01DX001 (ip), vehicle: saline with Tween-80
  survivor count: 2 of 6
T/C endpoint: mean survival time, dose: 30.0 mg/kg/injection, schedule: Q01DX001 (ip), vehicle: saline with Tween-80
  survivor count: 0 of 6

## CN(C)C(=C1C=CC=C1)N(C)C
[2]
  survivor count: 2 of 6
[3]
  survivor count: 0 of 6

## O=c1c(O)c(-c2cc(O)c(O)c(O)c2)oc2cc(O)cc(O)c12
[4]
  survivor count: 5 of 10

## CCOC(C[Se][Se]CC(OCC)OCC)OCC
[5]
  survivor count: 0 of 6
T/C endpoint: mean survival time, dose: 25.0 mg/kg/injection, schedule: Q04DX003 (ip), vehicle: saline with Tween-80
  survivor count: 0 of 6
T/C endpoint: mean survival time, dose: 100.0 mg/kg/injection, schedule: Q04DX003 (ip), vehicle: saline with Tween-80
  survivor count: 0 of 6
T/C endpoint: mean survival time, dose: 200.0 mg/kg/injection, schedule: Q04DX003 (ip), vehicle: saline with Tween-80
  survivor count: 0 of 6
[1]
  survivor count: 0 of 6

## CCOC(=O)c1ccc(NC(=O)Nc2cccc(NC(C)=O)c2)cc1
[6]
  survivor count: 1 of 3 and 2 of 6

## CC(C)(C[P+](C)(c1ccccc1)c1ccccc1)c1ccccc1
T/C endpoint: mean survival time, dose: 200.0 mg/kg/injection, schedule: Q04DX002 (ip), vehicle: saline with Tween-80
  survivor count: 3 of 3
[6]
  survivor count: 0 of 3

## O=C(Nc1ccc2ccccc2c1-c1c(NC(=O)c2ccccc2)ccc2ccccc12)c1ccccc1
T/C endpoint: mean survival time, dose: 200.0 mg/kg/injection, schedule: Q01DX001 (ip), vehicle: saline with Tween-80
  survivor count: 6 of 6

## Nc1ccn(C2OC(C(OC3OC(CO)C(O)C(N)C3O)C(O)C(O)C(O)C(O)CO)C(N)C(O)C2O)c(=O)n1 (stereo not given)
T/C endpoint: mean survival time, dose: 0.8 mg/kg/injection, schedule: Q01DX005 (ip), vehicle: saline
  survivor count: 1 of 6
T/C endpoint: mean survival time, dose: 1.6 mg/kg/injection, schedule: Q01DX005 (ip), vehicle: saline
  survivor count: 0 of 6
T/C endpoint: mean survival time, dose: 3.2 mg/kg/injection, schedule: Q01DX005 (ip), vehicle: saline
  survivor count: 0 of 6

## O=C(O)c1c(F)c(F)c2c(F)c(F)c(F)c(F)c2c1F
[1]
  survivor count: 1 of 6

## O=C(CC(SCCN1CCOCC1)c1ccccc1)c1ccc([N+](=O)[O-])cc1 (stereo not given)
T/C endpoint: mean survival time, dose: 400.0 mg/kg/injection, schedule: Q01DX001 (ip), vehicle: Klucel (hydroxypropylcellulose) (HPC)
  survivor count: 0 of 3

## Nc1ccc(N2CCNCC2)cc1
[1]
  survivor count: 5 of 6

## CC1C(c2ccccc2)OP(=O)(N(CCCl)CCCl)N1C (stereo not given)
[7]
  survivor count: 4 of 6
[8]
  survivor count: 0 of 6
[9]
  survivor count: 0 of 6
T/C endpoint: mean survival time, dose: 200.0 mg/kg/injection, schedule: Q01DX009 (ip), vehicle: water
  survivor count: 0 of 6 (2×)
T/C endpoint: mean survival time, dose: 250.0 mg/kg/injection, schedule: Q01DX001 (ip), vehicle: other
  survivor count: 0 of 6
T/C endpoint: mean survival time, dose: 500.0 mg/kg/injection, schedule: Q01DX001 (ip), vehicle: other
  survivor count: 0 of 6

## Cl/C(=N\Nc1ccccc1)c1ccccc1
[10]
  survivor count: 0 of 6
[11]
  survivor count: 1 of 6
[12]
  survivor count: 0 of 6

## O=C(O)c1ccccc1C(=O)c1cccc2ccccc12
[1]
  survivor count: 1 of 6

## O=C1C=C(Nc2nc(O)cc(=O)[nH]2)c2ccccc2C1=O
[11]
  survivor count: 3 of 6
[12]
  survivor count: 0 of 6

## CSc1nnnn1-c1ccccc1
[11]
  survivor count: 0 of 6

## COC(=O)CSC#N
T/C endpoint: mean survival time, dose: 40.0 mg/kg/injection, schedule: Q01DX001 (ip), vehicle: saline
  survivor count: 2 of 6

## C#CCN(C)/N=N/c1nc[nH]c1C(N)=O
T/C endpoint: mean survival time, dose: 25.0 mg/kg/injection, schedule: Q01DX009 (ip), vehicle: Klucel (hydroxypropylcellulose) (HPC)
  T/C: 129 % of control [5 of 6 alive]
T/C endpoint: mean survival time, dose: 50.0 mg/kg/injection, schedule: Q01DX009 (ip), vehicle: Klucel (hydroxypropylcellulose) (HPC)
  T/C: 145 % of control
[10]
  T/C: 137 % of control

## C[n+]1c(-c2cccc3ccccc23)c2cc(N)ccc2c2ccccc21
[7]
  survivor count: 1 of 6
T/C endpoint: mean survival time, dose: 50.0 mg/kg/injection, schedule: Q01DX009 (ip), vehicle: saline
  survivor count: 0 of 6
[8]
  survivor count: 0 of 6
[9]
  survivor count: 0 of 6

## Cc1ccc(C#CP(C#Cc2ccc(C)cc2)C#Cc2ccc(C)cc2)cc1
T/C endpoint: mean survival time, dose: 6.25 mg/kg/injection, schedule: Q01DX009 (ip), vehicle: saline with Tween-80
  survivor count: 3 of 3
[5]
  survivor count: 3 of 3

## CC(C)NCC(O)c1ccc(O)c(O)c1.[Pt].c1ccc([PH+](c2ccccc2)c2ccccc2)cc1.c1ccc([PH+](c2ccccc2)c2ccccc2)cc1
T/C endpoint: median survival time, dose: 200.0 mg/kg/injection, schedule: Q04DX003 (ip), vehicle: saline with Tween-80
  survivor count: 3 of 6

## CC1OC(OC2C(OC3CCC4(C)C(CCC5(C)C4CC=C4C6CC(C)(C)CCC6(CO)C(O)CC45C)C3(C)C)OC(CO)C(OC3OC(COC4OC(CO)C(O)C(O)C4O)C(O)C(O)C3O)C2O)C(O)C(O)C1O (stereo not given)
T/C endpoint: mean survival time, dose: 100.0 mg/kg/injection, schedule: Q01DX001 (sc), vehicle: steroid suspending solution
  survivor count: 1 of 6
T/C endpoint: mean survival time, dose: 200.0 mg/kg/injection, schedule: Q01DX001 (sc), vehicle: steroid suspending solution
  survivor count: 0 of 6

## NC(=O)CCl
T/C endpoint: mean survival time, dose: 200.0 mg/kg/injection, schedule: Q04DX003 (ip), vehicle: saline
  survivor count: 0 of 6
[13]
  survivor count: 0 of 6

## FC1(F)C(Cl)=[C]([Hg][C]2=C(Cl)C(F)(F)C(F)(F)C2(F)F)C(F)(F)C1(F)F
[2]
  survivor count: 3 of 6
[3]
  survivor count: 0 of 6

## COc1cc(/C=N\N=C\c2ccc(O)c(OC)c2)ccc1O
[4]
  survivor count: 5 of 6

## CC1(C)SC(C(NC(=O)COc2ccccc2)C(=O)O)NC1C(=O)O (stereo not given)
[1]
  survivor count: 0 of 6

## Cc1c([N+](=O)[O-])cc(Cl)n[n+]1[O-]
T/C endpoint: mean survival time, dose: 12.5 mg/kg/injection, schedule: Q04DX002 (ip), vehicle: saline with Tween-80
  survivor count: 3 of 3
T/C endpoint: mean survival time, dose: 25.0 mg/kg/injection, schedule: Q04DX002 (ip), vehicle: saline with Tween-80
  survivor count: 1 of 3
T/C endpoint: mean survival time, dose: 50.0 mg/kg/injection, schedule: Q04DX002 (ip), vehicle: saline with Tween-80
  survivor count: 0 of 3

## CCC(C)CNCCO (stereo not given)
[13]
  survivor count: 2 of 6

## Nc1cc(Cl)c(Cl)cc1Cl
T/C endpoint: mean survival time, dose: 100.0 mg/kg/injection, schedule: Q01DX009 (ip), vehicle: saline with Tween-80
  survivor count: 3 of 6
T/C endpoint: mean survival time, dose: 200.0 mg/kg/injection, schedule: Q01DX009 (ip), vehicle: saline with Tween-80
  survivor count: 3 of 6
[1]
  survivor count: 2 of 6

## CN(C)c1ccc2c(Nc3ccc(NS(C)(=O)=O)cc3)c3ccc(N(C)C)cc3nc2c1
T/C endpoint: median survival time, dose: 25.0 mg/kg/injection, schedule: Q01DX009 (ip), vehicle: Klucel (hydroxypropylcellulose) (HPC)
  T/C: 131 and 138 % of control
T/C endpoint: median survival time, dose: 50.0 mg/kg/injection, schedule: Q01DX009 (ip), vehicle: Klucel (hydroxypropylcellulose) (HPC)
  T/C: 135 % of control

## c1ccc(-c2cc(-c3cc(-c4ccccc4)on3)no2)cc1
T/C endpoint: mean survival time, dose: 400.0 mg/kg/injection, schedule: Q01DX001 (ip), vehicle: saline with Tween-80
  survivor count: 0 of 6
